This experiment concerns the target T1, phospho TAK1-Thr184/187 (human (endogenous in MDA-MB-231 and T47D)) (UniProt O43318).
T1 sequence (chain, phospho TAK1-Thr184/187 (by the antibody used)): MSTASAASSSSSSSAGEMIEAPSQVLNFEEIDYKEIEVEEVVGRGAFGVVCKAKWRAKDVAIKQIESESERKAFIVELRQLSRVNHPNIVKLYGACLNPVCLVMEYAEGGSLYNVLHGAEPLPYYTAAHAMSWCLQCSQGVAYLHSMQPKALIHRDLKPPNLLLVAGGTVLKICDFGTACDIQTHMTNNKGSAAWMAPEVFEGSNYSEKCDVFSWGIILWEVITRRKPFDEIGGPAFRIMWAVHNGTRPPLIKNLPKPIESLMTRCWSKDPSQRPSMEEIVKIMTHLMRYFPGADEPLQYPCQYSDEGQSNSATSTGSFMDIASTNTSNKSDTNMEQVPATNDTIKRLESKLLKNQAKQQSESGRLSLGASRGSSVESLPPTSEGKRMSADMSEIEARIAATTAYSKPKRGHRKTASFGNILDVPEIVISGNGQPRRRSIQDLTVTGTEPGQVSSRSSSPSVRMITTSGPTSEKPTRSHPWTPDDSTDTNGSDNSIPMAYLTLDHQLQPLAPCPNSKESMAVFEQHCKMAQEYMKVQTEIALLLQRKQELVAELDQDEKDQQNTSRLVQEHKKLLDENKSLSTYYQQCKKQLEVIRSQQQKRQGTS
Kind of experiment: co-IP.

Results are given in words; binding and its absence hold for the method and conditions named. In cells and extracts the contact can be indirect. Some results given as binding are weak or reduced against the parent protein; the word gives no strength.

B1: TAB1 (protein, UniProt Q15750 1-504)
chain: MAAQRRSLLQSEQQPSWTDDLPLCHLSGVGSASNRSYSADGKGTESHPPEDSWLKFRSENNCFLYGVFNGYDGNRVTNFVAQRLSAELLLGQLNAEHAEADVRRVLLQAFDVVERSFLESIDDALAEKASLQSQLPEGVPQHQLPPQYQKILERLKTLEREISGGAMAVVAVLLNNKLYVANVGTNRALLCKSTVDGLQVTQLNVDHTTENEDELFRLSQLGLDAGKIKQVGIICGQESTRRIGDYKVKYGYTDIDLLSAAKSKPIIAEPEIHGAQPLDGVTGFLVLMSEGLYKALEAAHGPGQANQEIAAMIDTEFAKQTSLDAVAQAVVDRVKRIHSDTFASGGERARFCPRHEDMTLLVRNFGYPLGEMSQPTPSPAPAAGGRVYPVSVPYSSAQSTSKTSVTLSLVMPSQGQMVNGAHSASTLDEATPTLTNQSPTLTLQSTNTHTQSSSSSSDGGLFRSRPAHSLPPGEDGRVEPYVDFAEFYRLWSVDHGEQSVVTAP
With B1, the binding entry is given as “binds”.

These data come from publication doi:10.1101/2020.04.12.037986.
